From the supplement of paper PMC12819154, “High-throughput peptide-centric local stability assay extends protein–ligand identification to membrane proteins, tissues and bacteria” (Nature Structural & Molecular Biology, 2025)
The other results are listed elsewhere or left out. Small differences around the control level are noise.

Protein sequences, listed by entry. Tags and fused reporters are not part of them. Lines headed by an entry give the natural chain unless they say otherwise; changes in a name come on top.
UniProt Q9UJY4: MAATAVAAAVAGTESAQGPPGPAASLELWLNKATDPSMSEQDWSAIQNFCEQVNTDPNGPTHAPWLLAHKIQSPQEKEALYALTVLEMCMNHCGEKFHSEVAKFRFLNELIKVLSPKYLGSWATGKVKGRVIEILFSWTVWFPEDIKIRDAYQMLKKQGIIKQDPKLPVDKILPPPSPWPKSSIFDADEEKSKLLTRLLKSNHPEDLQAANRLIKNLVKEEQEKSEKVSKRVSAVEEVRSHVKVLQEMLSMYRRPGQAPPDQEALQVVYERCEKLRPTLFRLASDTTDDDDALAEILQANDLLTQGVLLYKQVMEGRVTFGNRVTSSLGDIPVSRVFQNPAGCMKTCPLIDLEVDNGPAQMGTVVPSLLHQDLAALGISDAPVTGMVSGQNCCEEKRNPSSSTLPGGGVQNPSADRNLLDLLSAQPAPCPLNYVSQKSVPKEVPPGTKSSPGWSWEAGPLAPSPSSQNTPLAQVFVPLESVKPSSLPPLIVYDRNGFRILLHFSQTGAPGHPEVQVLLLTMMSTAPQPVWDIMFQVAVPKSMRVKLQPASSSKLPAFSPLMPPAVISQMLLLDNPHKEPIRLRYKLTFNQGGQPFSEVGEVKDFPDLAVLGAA
UniProt Q9UEE5: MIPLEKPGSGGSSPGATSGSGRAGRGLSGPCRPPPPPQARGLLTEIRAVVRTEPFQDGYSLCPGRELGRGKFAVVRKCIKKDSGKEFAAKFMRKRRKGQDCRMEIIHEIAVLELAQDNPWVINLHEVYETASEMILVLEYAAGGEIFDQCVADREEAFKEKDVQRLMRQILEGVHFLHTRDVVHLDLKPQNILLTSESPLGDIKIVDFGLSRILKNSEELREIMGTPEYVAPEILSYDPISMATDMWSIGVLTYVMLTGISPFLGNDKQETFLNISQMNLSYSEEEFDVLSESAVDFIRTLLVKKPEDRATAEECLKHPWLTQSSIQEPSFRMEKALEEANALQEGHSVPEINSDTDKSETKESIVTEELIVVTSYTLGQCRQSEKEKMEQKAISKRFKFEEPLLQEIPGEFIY
UniProt Q9UBU8, whole entry: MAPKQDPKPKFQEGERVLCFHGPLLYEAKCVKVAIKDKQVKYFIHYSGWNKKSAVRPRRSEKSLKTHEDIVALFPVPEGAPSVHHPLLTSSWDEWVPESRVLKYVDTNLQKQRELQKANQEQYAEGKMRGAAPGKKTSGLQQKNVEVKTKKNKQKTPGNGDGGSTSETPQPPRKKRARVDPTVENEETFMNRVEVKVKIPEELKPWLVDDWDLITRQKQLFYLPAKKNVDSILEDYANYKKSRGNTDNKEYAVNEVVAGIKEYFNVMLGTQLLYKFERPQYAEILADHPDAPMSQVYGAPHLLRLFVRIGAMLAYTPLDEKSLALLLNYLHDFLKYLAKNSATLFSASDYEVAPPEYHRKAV
UniProt Q9P0U3: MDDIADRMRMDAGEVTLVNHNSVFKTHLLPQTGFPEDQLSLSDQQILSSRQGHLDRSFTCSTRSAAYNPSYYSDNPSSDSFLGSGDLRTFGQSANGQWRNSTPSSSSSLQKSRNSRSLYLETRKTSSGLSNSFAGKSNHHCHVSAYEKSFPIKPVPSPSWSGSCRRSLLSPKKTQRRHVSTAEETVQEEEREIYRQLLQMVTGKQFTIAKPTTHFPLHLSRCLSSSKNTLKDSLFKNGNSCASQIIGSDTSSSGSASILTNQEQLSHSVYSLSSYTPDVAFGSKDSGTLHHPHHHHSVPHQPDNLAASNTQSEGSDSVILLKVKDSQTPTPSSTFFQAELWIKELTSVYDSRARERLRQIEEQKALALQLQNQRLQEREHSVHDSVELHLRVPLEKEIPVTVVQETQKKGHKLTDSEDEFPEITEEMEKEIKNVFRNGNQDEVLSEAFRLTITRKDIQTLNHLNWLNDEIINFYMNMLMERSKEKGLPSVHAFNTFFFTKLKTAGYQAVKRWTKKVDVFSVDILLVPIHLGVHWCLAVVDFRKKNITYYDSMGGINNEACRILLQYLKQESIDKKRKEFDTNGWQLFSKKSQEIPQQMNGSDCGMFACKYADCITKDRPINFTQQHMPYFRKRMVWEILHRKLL
UniProt Q9NZ71: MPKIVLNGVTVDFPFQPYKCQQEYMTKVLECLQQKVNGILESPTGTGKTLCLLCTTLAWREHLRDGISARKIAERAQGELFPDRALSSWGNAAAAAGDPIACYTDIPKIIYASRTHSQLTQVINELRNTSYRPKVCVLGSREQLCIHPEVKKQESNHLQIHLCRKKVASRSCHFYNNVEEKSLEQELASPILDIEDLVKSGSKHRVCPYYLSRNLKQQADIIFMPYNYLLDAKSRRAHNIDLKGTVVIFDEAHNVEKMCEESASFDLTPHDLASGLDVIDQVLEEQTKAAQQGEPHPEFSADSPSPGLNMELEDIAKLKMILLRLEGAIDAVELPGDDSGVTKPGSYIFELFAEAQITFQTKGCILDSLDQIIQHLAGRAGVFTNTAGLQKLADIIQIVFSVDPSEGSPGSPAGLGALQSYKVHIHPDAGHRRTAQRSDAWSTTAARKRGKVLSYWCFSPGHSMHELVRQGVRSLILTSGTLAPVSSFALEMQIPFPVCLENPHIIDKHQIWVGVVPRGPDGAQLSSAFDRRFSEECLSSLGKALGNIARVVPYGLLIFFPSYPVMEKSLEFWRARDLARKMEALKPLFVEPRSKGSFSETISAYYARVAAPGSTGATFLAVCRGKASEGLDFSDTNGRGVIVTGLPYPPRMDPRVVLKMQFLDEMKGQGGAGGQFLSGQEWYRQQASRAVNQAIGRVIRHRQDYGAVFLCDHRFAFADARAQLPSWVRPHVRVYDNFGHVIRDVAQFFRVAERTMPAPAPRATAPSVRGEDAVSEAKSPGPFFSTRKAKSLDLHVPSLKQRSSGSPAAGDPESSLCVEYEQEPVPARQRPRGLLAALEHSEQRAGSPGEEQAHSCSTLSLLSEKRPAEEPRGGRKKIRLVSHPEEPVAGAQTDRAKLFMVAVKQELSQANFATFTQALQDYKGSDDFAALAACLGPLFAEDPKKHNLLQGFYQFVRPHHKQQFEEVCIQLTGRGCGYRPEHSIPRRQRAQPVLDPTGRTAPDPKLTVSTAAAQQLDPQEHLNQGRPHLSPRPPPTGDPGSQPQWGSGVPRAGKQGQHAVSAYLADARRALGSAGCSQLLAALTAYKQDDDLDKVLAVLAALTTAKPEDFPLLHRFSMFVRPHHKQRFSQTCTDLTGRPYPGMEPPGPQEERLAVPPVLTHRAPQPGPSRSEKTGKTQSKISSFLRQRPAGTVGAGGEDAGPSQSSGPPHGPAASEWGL
UniProt Q9NZD4: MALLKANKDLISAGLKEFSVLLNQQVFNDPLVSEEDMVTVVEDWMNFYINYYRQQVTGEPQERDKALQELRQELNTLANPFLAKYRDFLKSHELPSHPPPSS
UniProt Q9UGK8: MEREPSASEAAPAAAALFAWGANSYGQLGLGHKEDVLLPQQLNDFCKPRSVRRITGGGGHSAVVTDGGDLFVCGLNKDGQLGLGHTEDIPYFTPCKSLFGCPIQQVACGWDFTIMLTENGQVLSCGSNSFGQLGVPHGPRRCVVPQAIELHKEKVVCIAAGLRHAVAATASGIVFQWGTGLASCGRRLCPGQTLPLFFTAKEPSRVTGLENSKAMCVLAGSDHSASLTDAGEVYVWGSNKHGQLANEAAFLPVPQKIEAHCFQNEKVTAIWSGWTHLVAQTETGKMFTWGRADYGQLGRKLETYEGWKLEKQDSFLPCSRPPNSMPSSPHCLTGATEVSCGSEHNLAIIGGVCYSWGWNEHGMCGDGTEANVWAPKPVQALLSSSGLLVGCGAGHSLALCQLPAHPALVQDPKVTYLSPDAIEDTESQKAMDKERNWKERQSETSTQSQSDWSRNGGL
UniProt Q9NZB2: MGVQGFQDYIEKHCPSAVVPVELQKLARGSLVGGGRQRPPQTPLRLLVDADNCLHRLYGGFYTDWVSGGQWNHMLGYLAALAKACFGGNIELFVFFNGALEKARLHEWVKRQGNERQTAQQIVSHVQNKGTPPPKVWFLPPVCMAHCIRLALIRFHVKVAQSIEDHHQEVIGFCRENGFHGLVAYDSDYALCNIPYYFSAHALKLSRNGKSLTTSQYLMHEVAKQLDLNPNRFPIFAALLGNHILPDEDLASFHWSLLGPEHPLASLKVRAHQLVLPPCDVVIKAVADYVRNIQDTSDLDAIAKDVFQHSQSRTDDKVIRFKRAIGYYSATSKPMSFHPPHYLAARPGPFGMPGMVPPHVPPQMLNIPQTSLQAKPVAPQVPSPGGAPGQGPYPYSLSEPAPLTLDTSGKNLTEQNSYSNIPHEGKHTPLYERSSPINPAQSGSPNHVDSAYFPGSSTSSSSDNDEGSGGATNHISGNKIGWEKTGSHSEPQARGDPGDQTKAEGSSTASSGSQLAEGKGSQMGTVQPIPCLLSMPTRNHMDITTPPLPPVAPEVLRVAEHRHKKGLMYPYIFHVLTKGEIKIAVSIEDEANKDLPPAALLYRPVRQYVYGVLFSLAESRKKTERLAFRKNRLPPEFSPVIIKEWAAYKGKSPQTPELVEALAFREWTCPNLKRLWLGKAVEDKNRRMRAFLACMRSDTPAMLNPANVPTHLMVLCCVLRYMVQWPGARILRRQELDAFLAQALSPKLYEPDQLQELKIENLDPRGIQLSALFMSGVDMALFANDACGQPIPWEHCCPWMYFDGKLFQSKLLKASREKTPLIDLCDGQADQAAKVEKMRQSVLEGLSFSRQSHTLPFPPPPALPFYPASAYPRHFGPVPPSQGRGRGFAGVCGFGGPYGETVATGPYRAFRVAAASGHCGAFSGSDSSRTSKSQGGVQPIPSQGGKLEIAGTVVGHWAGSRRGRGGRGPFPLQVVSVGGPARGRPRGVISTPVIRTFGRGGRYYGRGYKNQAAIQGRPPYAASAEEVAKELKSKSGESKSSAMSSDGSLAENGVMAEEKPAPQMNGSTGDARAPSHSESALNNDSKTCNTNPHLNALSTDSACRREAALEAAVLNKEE

Compound: CN[C@@H]1C[C@H]2O[C@@](C)([C@@H]1OC)n1c3ccccc3c3c4c(c5c6ccccc6n2c5c31)C(=O)NC4 [staurosporine]
Assay: log2 fold change of tryptic peptide abundance, ligand vs vehicle (limited proteolysis) (log2 ratio); higher = more trypsin-susceptible (destabilized)
Conditions: ligand concentration: 20 uM; sample: K562 cleared lysate; digestion: 4 min, 22 C (HT-PELSA RT4min, Orbitrap Astral)

Q: How did the log2 fold change turn out when “GGA2 (peptide sequence: NLVKEEQEKSEK, peptide start residue: 216) (UniProt Q9UJY4)” was run?
A: -0.269

Q: With “UniProt Q9UEE5 (peptide sequence: GLSGPCRPPPPPQAR, peptide start residue: 26)” as the target, how does the log2 fold change read?
A: 0.529

Q: “MORF4L1 (peptide sequence: QKTPGNGDGGSTSETPQPPRK, peptide start residue: 154) (UniProt Q9UBU8)” was tested. Which log2 fold change did it give?
A: -0.459

Q: Which log2 fold change does the source give for “UniProt Q9P0U3 (peptide sequence: KTSSGLSNSFAGK, peptide start residue: 124)” here?
A: 0.736

Q: With “RTEL1 (peptide sequence: GPDGAQLSSAFDR, peptide start residue: 519) (UniProt Q9NZ71)” as the target, how does the log2 fold change read?
A: -0.579

Q: Which log2 fold change does the source give for “AHSP (peptide sequence: SHELPSHPPPSS, peptide start residue: 91) (UniProt Q9NZD4)” here?
A: 0.0248

Q: With “SERGEF (peptide sequence: VTYLSPDAIEDTESQK, peptide start residue: 414) (UniProt Q9UGK8)” as the target, how does the log2 fold change read?
A: -0.0742

Q: With “FAM120A (peptide sequence: SPQTPELVEALAFR, peptide start residue: 652) (UniProt Q9NZB2)” as the target, how does the log2 fold change read?
A: 0.925
